Measurements reported in PubChem BioAssay AID602196 (INSERM, 2012).
This is a random part of about 23,000 reagents. 455 of all reagents (2%) were called active. 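Active includes both protection and sensitisation; some change values fall well beyond the stated -50 to +50 range.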 Entries without a mark were called inactive. Reagents against one gene are numbered here. No sequences are given here. Not given: the amount of reagent.

Aim: 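Genes whose knock-down alters cisplatin killing of lung cancer cells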
System: human A549 lung cancer cells
Reagents: siRNA pair against human genes
Time to read-out: 48 h transfection before cisplatin; time from cisplatin to read-out not stated
Challenge: cisplatin at a dose killing half of control-siRNA cells; exact dose and duration not given
Measured: 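Cisplatin cell death as a shift from the 50% death seen with control siRNA; siRNAs toxic or growth-blocking alone scored 0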
Scale: two-siRNA summed score (-2 to +2): higher = both siRNAs protect from cisplatin killing; -2 means both sensitise; mean protection from cisplatin (shift in death) and protection from cisplatin (shift in death), siRNA C and protection from cisplatin (shift in death), siRNA D: higher = protection from cisplatin killing
Rule for the call: 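Each siRNA scores 0 if harmful alone by LDH or WST-1, otherwise +1 if it reduces and -1 if it increases cisplatin killing; a gene is active when both siRNAs agree (sum +2 or -2)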
Meaning of the calls: active = both siRNAs shift cisplatin killing the same way; inactive = no consistent shift, or siRNA harmful alone

Target gene | reagent no. | two-siRNA summed score (-2 to +2) | mean protection from cisplatin (shift in death) (%) | protection from cisplatin (shift in death), siRNA C (%) | protection from cisplatin (shift in death), siRNA D (%)
TRHDE-AS1 | 1 | 1 | 9.9 | 25 | -5.1
BPIFA1 | 1 | 1 | 7.8 | 10.3 | 5.3
AMZ2P1 | 1 | 0 | 8.3 | 11.4 | 5.2
OBSCN | 1 | 0 | 8.5 | 5.4 | 11.7
EPHA5 | 1 | 0 | -1 | -12 | 10
STAB2 | 1 | -1 | -11.2 | -18.2 | -4.2
PDHB | 1 | 1 | 11.7 | 3.1 | 20.2
SULT1A1 | 1 | 0 | 2.6 | 9 | -3.8
PROX1 | 1 | 0 | 5.3 | 9.1 | 1.4
LOC442170 | 1 | 1 | 12.1 | 2.1 | 22
SLC35F1 | 1 | 1 | -3.4 | -18.8 | 12
HSPA5 | 1 | 0 | 5.7 | 29 | -17.6
F12 | 1 | 0 | 0.8 | -1.6 | 3.1
SSH1 | 1 | 0 | 2.8 | 0.1 | 5.5
PTOV1 | 1 | 0 | -9.3 | -2.5 | -16.1
CARD16 | 1 | 0 | 6.2 | 6.6 | 5.7
CARD16 | 2 | 0 | 7.3 | 8.8 | 5.8
FAABTP | 1 | 0 | -2.1 | 1 | -5.1
ADAM7 | 1 | 0 | 10.8 | 17.8 | 3.8
PPP4R1L | 1 | 0 | 4.2 | -5.9 | 14.4
CYP2S1 | 1 | 0 | 10.3 | 21.2 | -0.6
PLPPR2 | 1 | 0 | -12.7 | -11.4 | -13.9
RNF4 | 1 | 0 | 6.6 | 3.1 | 10.2
VNN3P | 1 | 0 | 9 | 17.1 | 0.9
FAM89B | 1 | -1 | -17.8 | -31.4 | -4.1
SELENOM | 1 | 1 | 8.7 | 1.5 | 16
SPATC1 | 1 | 0 | 10.3 | 22.9 | -2.2
VANGL1 | 1 | 0 | 11.1 | 13.2 | 9.1
TTBK1 | 1 | 0 | 11.5 | 20.8 | 2.2
CDK5RAP1 | 1 | 0 | 3.7 | 3.2 | 4.3
LOC389695 | 1 | 0 | 8.9 | 9.1 | 8.6
MED31 | 1 | 0 | 0.7 | 11.5 | -10.2
KRTAP13-2 | 1 | 0 | 1.5 | 0.8 | 2.2
KCNJ15 | 1 | 1 | 11.4 | 13.3 | 9.4
ZNF84 | 1 | 1 | 9.1 | 15.1 | 3
LTA | 1 | -1 | -23.2 | 2.5 | -48.8
ULK2 | 1 | 0 | -0.8 | -7.2 | 5.6
XPC | 1 | -1 | -21.7 | -16.3 | -27.1
KRT5 | 1 | 1 | 25.3 | 43.6 | 7.1
